This note sets out measurements from patent publication US20150118311A1, “Highly Penetrative Nanocarriers for Treatment of CNS Disease” (priority 2012, published 2015).

This test relates to GS5 cells. The test is described as follows: GS5 cell proliferation/viability (MTT, AlamarBlue). The conditions noted are these: Homo sapiens, 72 h, three days after treatment, read-out: IC50 of candidate drugs on GS5 cells. The class given is cell-based.

In the case of `COc1ccc(CCN2CCC(Nc3nc4ccccc4n3Cc3ccc(F)cc3)CC2)cc1` [Astemizole], the 50% inhibitory concentration (IC50) came to 3.2 µM.
